No constants are given. Whether binding was seen depends on the method and setting. In cells and extracts the contact can be indirect.

Sequences of proteins named here, by UniProt entry; tags and fusion partners are left off.
UniProt P10275: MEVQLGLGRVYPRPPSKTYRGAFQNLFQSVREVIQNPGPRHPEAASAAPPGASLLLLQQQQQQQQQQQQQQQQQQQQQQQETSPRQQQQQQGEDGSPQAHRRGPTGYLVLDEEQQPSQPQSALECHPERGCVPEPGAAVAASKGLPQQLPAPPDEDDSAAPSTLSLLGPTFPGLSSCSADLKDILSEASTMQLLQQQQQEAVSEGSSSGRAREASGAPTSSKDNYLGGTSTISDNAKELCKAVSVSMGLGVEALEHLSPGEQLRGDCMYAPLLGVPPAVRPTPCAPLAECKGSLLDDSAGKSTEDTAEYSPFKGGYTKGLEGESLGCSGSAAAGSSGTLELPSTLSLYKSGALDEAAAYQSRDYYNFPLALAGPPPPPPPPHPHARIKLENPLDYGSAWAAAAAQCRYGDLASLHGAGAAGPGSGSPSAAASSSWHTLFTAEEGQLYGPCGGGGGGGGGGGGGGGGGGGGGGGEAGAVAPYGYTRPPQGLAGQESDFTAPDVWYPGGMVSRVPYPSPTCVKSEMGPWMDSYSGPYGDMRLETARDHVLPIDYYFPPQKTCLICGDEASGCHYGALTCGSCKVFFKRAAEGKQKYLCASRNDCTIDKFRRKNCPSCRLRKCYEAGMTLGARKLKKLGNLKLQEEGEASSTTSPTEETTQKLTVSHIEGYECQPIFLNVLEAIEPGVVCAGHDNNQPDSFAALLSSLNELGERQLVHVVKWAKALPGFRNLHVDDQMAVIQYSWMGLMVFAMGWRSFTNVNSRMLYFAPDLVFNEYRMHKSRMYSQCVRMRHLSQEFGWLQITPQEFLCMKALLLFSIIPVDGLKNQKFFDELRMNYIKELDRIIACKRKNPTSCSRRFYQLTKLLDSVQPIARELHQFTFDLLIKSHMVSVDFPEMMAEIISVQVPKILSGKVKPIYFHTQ

The text below walks through data of publication PMC4777538.

In the test the target is T1, CCCTC-binding factor (CTCF) (human (endogenous in RWPE-1 and LNCaP)) (UniProt P49711).
T1 sequence: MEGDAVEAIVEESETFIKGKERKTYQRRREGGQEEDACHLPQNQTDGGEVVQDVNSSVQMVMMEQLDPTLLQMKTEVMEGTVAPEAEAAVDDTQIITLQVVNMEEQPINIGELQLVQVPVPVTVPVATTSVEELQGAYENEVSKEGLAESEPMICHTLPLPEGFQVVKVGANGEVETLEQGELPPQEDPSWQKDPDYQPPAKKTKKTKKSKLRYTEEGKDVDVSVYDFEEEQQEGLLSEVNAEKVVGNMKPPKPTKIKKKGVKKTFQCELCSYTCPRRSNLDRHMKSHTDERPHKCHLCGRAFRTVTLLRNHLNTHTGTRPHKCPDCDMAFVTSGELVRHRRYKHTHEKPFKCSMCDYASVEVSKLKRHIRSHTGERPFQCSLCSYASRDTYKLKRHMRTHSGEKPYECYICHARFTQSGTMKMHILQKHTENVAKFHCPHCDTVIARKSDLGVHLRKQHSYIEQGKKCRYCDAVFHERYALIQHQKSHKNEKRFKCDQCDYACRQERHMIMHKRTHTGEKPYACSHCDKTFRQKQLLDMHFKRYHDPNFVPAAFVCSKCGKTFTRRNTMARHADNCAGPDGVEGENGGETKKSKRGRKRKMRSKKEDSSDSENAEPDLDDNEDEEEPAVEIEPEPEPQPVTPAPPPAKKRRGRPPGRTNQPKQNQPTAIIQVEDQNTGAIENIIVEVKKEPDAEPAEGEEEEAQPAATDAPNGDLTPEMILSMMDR
The test is described as follows: co-IP; immunoprecipitation by CTCF antibody, western blotting by AR, CTCF or GAPDH; RWPE-1 and LNCaP cells, LNCaP also with synthetic androgen R1881.

Take “androgen receptor (AR) (from UniProt P10275 1-920)”: the binding entry is reported as “no binding”.
